Measurements taken from patent publication US9410217B2, “Method of reducing a fermentation and/or enzyme inhibitor in a saccharide-containing composition” (priority 2014, dated 2016).

Assay: Reduction of HMF in sugar liquor after contact with amine
Experimental: Sugar liquor was prepared by a two-step hydrolysis process with subsequent refining. A slurry of particulate biomass was first subjected to a first hydrolysis step at about 190-240° C. and 50-80 bar for 1-120 min. The resulting solids were subjected to supercritical or near-critical water conditions at about 374-450° C. and 221-300 bar for less than 1 minute. The resulting liquid portion was concentrated to about 250-300 g/L of monomer sugar equivalent and acid hydrolyzed at about 100-200° C. for 1 hour. The acid-hydrolyzed liquor was filtered and neutralized with sodium hydroxide to a pH of about 5-7. After that, the liquid portion was overlimed with calcium oxide at pH of about 8-10 and filtered. The final pH adjustment to about 5-7 was done with 70% sulfuric acid. Overliming was performed to produce the sugar liquor used in these examples, and an aldehyde compound, HMF, subsequently re-added to simulate a sugar liquor that is not overlimed.
The pH of 100 g of the sugar liquor was adjusted to 6 with sodium hydroxide prior to addition of the amine. 1 g of m-phenylenediamine (MPD) was added to the sugar liquor, and the mixture was shaken for 1 hour.
Using the same procedure to prepare the sugar liquor as described in Example 1, the pH of 100 g of the sugar liquor was adjusted to 6 with NaOH prior to addition of the amine. For each sample, 1 g of amine was added, and the mixture was shaken for 1 hour.
Using the same procedure to prepare the sugar liquor as described in Example 1, the pH of 100 g of the sugar liquor was adjusted to 6 with sodium hydroxide prior to addition of the amine. For each sample, 1 g of amine was added, and the mixture was shaken for 1 hour.

[1] = sugar liquor after contact, 1 g amine per 100 g liquor, pH 6, shaken 1 hour
[2] = Table 6, sugar liquor after contact, 1 g amine per 100 g liquor, pH 6, shaken 1 hour

Structure (SMILES) | Acetic Acid [1] [g/L] | Glucose [1] [g/L] | Xylose [1] [g/L] | Xylose [2] [g/1] | Acetic Acid (pH 6) [g/L] | Glucose (pH 6) [g/L] | Xylose (pH 6) [g/1]
Cc1ccc(N)cc1N [DAT, 2,4-diaminotoluene] | 1.34 | 158.80 | 21.30 | – | – | – | –
Nc1ccc(N)cc1 [PPD, p-phenylenediamine] | 1.49 | 154.69 | 20.93 | – | – | – | –
NC(N)=O [urea] | 1.56 | 159.33 | – | 22.10 | – | – | –
Nc1nc(N)nc(N)n1 [melamine] | 1.40 | 159.77 | – | 21.79 | – | – | –
Nc1cccc(N)c1 [MPD, m-phenylenediamine] | 1.99 | 149.44 | 23.22 | – | – | – | –
Nc1ccccc1N [OPD, o-phenylenediamine] | 1.39 | 156.03 | 20.62 | – | – | – | –
Nc1ccccc1 [aniline] | 1.42 | 165.00 | – | 22.78 | – | – | –
C1CCNCC1 [piperidine] | – | – | – | – | 1.55 | 156.87 | 21.63
NCCO [ethanolamine] | 1.50 | 155.94 | – | 21.37 | – | – | –
